The values that follow come from PMC7819943, “Rice protein-binding microarrays: a tool to detect cis-acting elements near promoter regions in rice”.

By UniProt entry, the sequences of proteins in these tests, tags left out.
UniProt Q0JBA9, entry or part of it: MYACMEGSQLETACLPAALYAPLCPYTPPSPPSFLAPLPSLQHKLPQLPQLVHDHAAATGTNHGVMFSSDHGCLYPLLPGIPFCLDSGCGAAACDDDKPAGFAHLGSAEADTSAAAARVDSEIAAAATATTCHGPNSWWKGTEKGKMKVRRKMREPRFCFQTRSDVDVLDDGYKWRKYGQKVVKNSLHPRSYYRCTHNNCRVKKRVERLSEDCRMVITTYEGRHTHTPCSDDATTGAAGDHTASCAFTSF

The other results are listed elsewhere or left out.

The experiment concerns the target OsWRKY34 (Oryza sativa, UniProt Q0JBA9 1-250). Description: protein-binding microarray (RPBM); PBS, 2% BSA, 51.3 ng/ul salmon testes DNA, 50 uM zinc acetate, 200 nM TF, 25 C, 1 h; high values mean tight binding. To be noted: protein: recombinant; tags: N-terminal polyhistidine and DsRed monomer fusion (pET32a); label: CyDye5-dUTP incorporated in the synthesized complementary strand; 3' TTTTT single-stranded linker to array surface; dsDNA, one strand shown. Summed up:
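Transcription factors, each fused N-terminally to a polyhistidine tag and DsRed, were expressed in E. coli BL21-CodonPlus and purified on Ni–NTA. A custom Agilent array was made double-stranded by primer extension with Cy5-dUTP and blocked with 2% BSA. It was incubated with 200 nM protein in PBS, 2% BSA, salmon testes DNA and 50 µM zinc acetate at 25 °C for 1 h, then washed. The binding signal is per-feature fluorescence intensity (arbitrary units) read on an Axon 4000B scanner.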
Turning to “GACCGCTCTCTCCGTTTTCCTCCTTTCTTGCGACTTCCACCGGAGTCACCTAGTGCAG”, the binding signal was 11900 fluorescence intensity (a.u.).
For “GTTCATCCGTCAGTGGCCCCTCTTCCTTTTCCATTATCATCGGAGTCACCTAGTGCAG” the value was 8880 fluorescence intensity (a.u.).
The figure for “GCAAACAAAGGAGAATGACCCGATTACCTTTTTATTCTCTCGGAGTCACCTAGTGCAG” is 8350 fluorescence intensity (a.u.).
For “GGGAGGGAGACGAGAAAAGGTGTTGACGTGCCGTCATCCACGGAGTCACCTAGTGCAG” the value was 10700 fluorescence intensity (a.u.); for “GTTCCACATCTTAATAGCAGTCATTTAGATGTACTTTTGACGGAGTCACCTAGTGCAG”, 8160 fluorescence intensity (a.u.); for “CGTCTGACTTCGCGTCACTCCCTGCTCTAGGCGACTCCGCCGGAGTCACCTAGTGCAG”, 9420 fluorescence intensity (a.u.).
In the case of “AAAATCAATGATTAGCTGAGCCCAGATCCCAACTTTTTCTCGGAGTCACCTAGTGCAG”, the binding signal is 8130 fluorescence intensity (a.u.).
On to “TCTCCAGGATAAATTTACGCATATAATTTTTGTTTCTTTTCGGAGTCACCTAGTGCAG”, for which the binding signal is 10500 fluorescence intensity (a.u.).
As to “GTATTATTCTGATTTCAAATTACCCGATCTTACATAACATCGGAGTCACCTAGTGCAG”, the binding signal is 8120 fluorescence intensity (a.u.).
The figure for “TCTTATATTCGAAGGAAGTTATCGATCTTTTTGTTTGACCCGGAGTCACCTAGTGCAG” is 8740 fluorescence intensity (a.u.); for “CTGTATCCTGTTTTGTTTTCTCTATATTTATTATTTTTGTCGGAGTCACCTAGTGCAG” it is 11100 fluorescence intensity (a.u.); for “CGACGCAACACCACACTACTCTTCTCGTCTCGTCTCCCTCCGGAGTCACCTAGTGCAG” it is 14600 fluorescence intensity (a.u.).
“TTTACTCGAACACCACTGGTTCTTGTGCTAATCACATCTACGGAGTCACCTAGTGCAG”: the binding signal was 8370 fluorescence intensity (a.u.).
For “CACTATAACTGCCATGCCACCTGTGCATATTATGTTGTCGCGGAGTCACCTAGTGCAG” the value was 11400 fluorescence intensity (a.u.).
For “CTCTTGTTGTGTATCTGCATTTCTTCCCTAGTGATACTAGCGGAGTCACCTAGTGCAG” the value was 13800 fluorescence intensity (a.u.); for “ACTGTATTGGTCTCGAGTACTTTTTGGAGGATATCTAGCTCGGAGTCACCTAGTGCAG”, 9500 fluorescence intensity (a.u.); for “CCGCTACAACACTCAACACCATACCACATGTCATCTCCGTCGGAGTCACCTAGTGCAG”, 8060 fluorescence intensity (a.u.).
The figure for “AGTATATACTAGTAATATCTACGGGCCTGTTCACTTTAATCGGAGTCACCTAGTGCAG” is 8370 fluorescence intensity (a.u.); for “TGCTTGACGATTCATCGATGTCCTTGTACCGTGCCTTCGGCGGAGTCACCTAGTGCAG” it is 8400 fluorescence intensity (a.u.).
With “AGCATCCTACCGATTTCCGGTCATTTTTCTCCTACGACATCGGAGTCACCTAGTGCAG”, the binding signal was 9210 fluorescence intensity (a.u.).
The figure for “CAAGAGAGTGGGTACGGGGCCCTCAAAATTGCAGGGGCGGCGGAGTCACCTAGTGCAG” is 8460 fluorescence intensity (a.u.); for “TCTTCGTCCGTCACTCGTGGCACGCAGTTTTAACCCTAGGCGGAGTCACCTAGTGCAG” it is 8450 fluorescence intensity (a.u.); for “TTTTCGCTTTAAATTTGTTCCAATATTTATCTACCGTTCCCGGAGTCACCTAGTGCAG” it is 8940 fluorescence intensity (a.u.).
The figure for “GTTATTAGTCTACGTTTAATACTTCAAATGTGTGTCCTTACGGAGTCACCTAGTGCAG” is 8640 fluorescence intensity (a.u.); for “CGGGGATCCGCTCCGCCGTCTCGCCTCCCGCCCCGTGGATCGGAGTCACCTAGTGCAG” it is 8950 fluorescence intensity (a.u.).
Take “ATCTGAATCGTCCATTATCCATCATTCATTTATCATCTACCGGAGTCACCTAGTGCAG”: the binding signal was 8390 fluorescence intensity (a.u.).
For “CGCTGATGCGCGTGTGATGATTGCTGTGGTTTTATTCTCCCGGAGTCACCTAGTGCAG” the value was 9730 fluorescence intensity (a.u.); for “CACACTTTTCTTCTGTACCATTTCGCCGAGCTTTACCCCGCGGAGTCACCTAGTGCAG”, 9010 fluorescence intensity (a.u.).
For the sequence “CCGCCCAGTGGTTGTGCAATCGGGGTTGTTGGGGCAGCATCGGAGTCACCTAGTGCAG”, the binding signal was 12200 fluorescence intensity (a.u.).
For “CAGTTTTCCTTGGTTCATTCTACGATACTTGCTAATTAATCGGAGTCACCTAGTGCAG” the value was 9430 fluorescence intensity (a.u.); for “CCTTTTTCAACTCCACATTCACTTCTTTTCGGCCATGCTGCGGAGTCACCTAGTGCAG”, 10100 fluorescence intensity (a.u.); for “AGTAGTGATCACCTCTGCGCTCTTGTCGTCCTCACCGCCACGGAGTCACCTAGTGCAG”, 9600 fluorescence intensity (a.u.).
The figure for “GACGGTTTGGTACTTCGATCTGATTATTGCATTCTCTCGTCGGAGTCACCTAGTGCAG” is 8100 fluorescence intensity (a.u.); for “TTTCTCTCCTACGTACACGCACGCGCGGTAACGAGTTAACCGGAGTCACCTAGTGCAG” it is 8350 fluorescence intensity (a.u.).
For “ATCTCATCTCATCGACCACACCTGCATCATCAATCTGCCTCGGAGTCACCTAGTGCAG” the value was 10800 fluorescence intensity (a.u.); for “GCTGCACGTCGTTGGAGTACTTCCTAATCCCAACTGTTACCGGAGTCACCTAGTGCAG”, 12300 fluorescence intensity (a.u.); for “GCACGGACATGCGAGGCCCACATATATTTCTTCTCGCCTACGGAGTCACCTAGTGCAG”, 9610 fluorescence intensity (a.u.).
“GTAGCATGCTTCTATCCTGTCCCGGTGTTTGTCGTACATTCGGAGTCACCTAGTGCAG”: the binding signal was 10200 fluorescence intensity (a.u.).
Take “TATCCCACGTACAAGCATCACCGGCCTTATTTTATTGTTTCGGAGTCACCTAGTGCAG”: the binding signal is 8800 fluorescence intensity (a.u.).
The figure for “AGTTTCTGTTGTTGAGGAGAGTGGCTAGGAAATATTAACACGGAGTCACCTAGTGCAG” is 8810 fluorescence intensity (a.u.); for “TCACGGGTGAACACGATCCCCTGATAACTTCCATCCAGTCCGGAGTCACCTAGTGCAG” it is 8600 fluorescence intensity (a.u.).
For “CTCGTTGGTTTGCAGCTTTACATCGCTTTTTGTATAATTACGGAGTCACCTAGTGCAG” the value was 9490 fluorescence intensity (a.u.).
